# Taken from: PubChem BioAssay AID1224830 (NIAID, 2016)
# Screen: 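Host factors that control LPS-induced TNF expression in human macrophages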 (primary screen)
# Cell system: human THP-1 monocytic leukaemia cells, TNF dual-luciferase reporter clone, PMA-differentiated to macrophage-like cells
# Knock-down reagent: siRNA pool against human genes, 50 nM
# Duration: LPS for 4 h, given about 3 days after siRNA transfection
# Conditions: bacterial LPS (TLR4 ligand), 10 ng/ml
# Measurement: 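TNF firefly reporter luminescence divided by renilla, normalised to the plate median, then turned into a robust z-score for each replicate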
# Scale: TNF reporter robust z-score: higher = stronger TNF reporter response to LPS
# Rule for the call: 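a well is active when its z-score exceeds 2.8 or falls below -1.5; control wells carry no call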
# In all, the deposit lists about 18,000 reagents; shown is a random part of them. Of all reagents, about 2,900 (16%) were called active. 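Calls are made per well; low scores hint the gene aids the LPS response, high scores that it dampens it.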 A number with no mark means an inactive call. Repeated entries: four replicate wells of each siRNA pool.
Target gene,TNF reporter robust z-score
GPX7 (glutathione peroxidase 7),-0.42
GPX7 (glutathione peroxidase 7),-0.61
GPX7 (glutathione peroxidase 7),-1.04
GPX7 (glutathione peroxidase 7),0.38
"ANKRD20A5P (ankyrin repeat domain 20 family member A5, pseudogene)",0.62
"ANKRD20A5P (ankyrin repeat domain 20 family member A5, pseudogene)",1.15
"ANKRD20A5P (ankyrin repeat domain 20 family member A5, pseudogene)",1.43
"ANKRD20A5P (ankyrin repeat domain 20 family member A5, pseudogene)",3.05 (active)
PKD1L2 (polycystin 1 like 2 (gene/pseudogene)),-1.01
PKD1L2 (polycystin 1 like 2 (gene/pseudogene)),-0.66
PKD1L2 (polycystin 1 like 2 (gene/pseudogene)),0.66
PKD1L2 (polycystin 1 like 2 (gene/pseudogene)),-0.21
SARM1 (sterile alpha and TIR motif containing 1),1.98
SARM1 (sterile alpha and TIR motif containing 1),2.5
SARM1 (sterile alpha and TIR motif containing 1),0.6
SARM1 (sterile alpha and TIR motif containing 1),0.33
PROS1 (protein S),-0.46
PROS1 (protein S),0.1
PROS1 (protein S),-0.26
PROS1 (protein S),1.06
"EVA1A (eva-1 homolog A, regulator of programmed cell death)",-0.22
"EVA1A (eva-1 homolog A, regulator of programmed cell death)",-0.79
"EVA1A (eva-1 homolog A, regulator of programmed cell death)",-0.3
FSTL4 (follistatin like 4),0.39
FSTL4 (follistatin like 4),0.42
FSTL4 (follistatin like 4),-0.04
FAM209A (family with sequence similarity 209 member A),-1.66 (active)
FAM209A (family with sequence similarity 209 member A),-0.87
FAM209A (family with sequence similarity 209 member A),-0.54
FAM209A (family with sequence similarity 209 member A),-0.48
MED27 (mediator complex subunit 27),1.04
MED27 (mediator complex subunit 27),1.89
MED27 (mediator complex subunit 27),0.94
MED27 (mediator complex subunit 27),1.14
PCYOX1 (prenylcysteine oxidase 1),-0.13
PCYOX1 (prenylcysteine oxidase 1),1.36
PCYOX1 (prenylcysteine oxidase 1),2.04
PCYOX1 (prenylcysteine oxidase 1),0.29
FLYWCH1 (FLYWCH-type zinc finger 1),-0.01
FLYWCH1 (FLYWCH-type zinc finger 1),1.77
FLYWCH1 (FLYWCH-type zinc finger 1),0.78
FLYWCH1 (FLYWCH-type zinc finger 1),1.72
ADGRA1 (adhesion G protein-coupled receptor A1),-0.89
ADGRA1 (adhesion G protein-coupled receptor A1),-1.29
ADGRA1 (adhesion G protein-coupled receptor A1),-1.25
ADGRA1 (adhesion G protein-coupled receptor A1),-0.28
PPP1R15A (protein phosphatase 1 regulatory subunit 15A),-0.15
PPP1R15A (protein phosphatase 1 regulatory subunit 15A),0.13
PPP1R15A (protein phosphatase 1 regulatory subunit 15A),-0.02
SYT10 (synaptotagmin 10),1.08
SYT10 (synaptotagmin 10),1.05
SYT10 (synaptotagmin 10),1.63
SYT10 (synaptotagmin 10),0.86
PRKCE (protein kinase C epsilon),2.01
PRKCE (protein kinase C epsilon),0.45
PRKCE (protein kinase C epsilon),0.83
PRKCE (protein kinase C epsilon),-0.08
"IRAG1 (inositol 1,4,5-triphosphate receptor associated 1)",1.53
"IRAG1 (inositol 1,4,5-triphosphate receptor associated 1)",0.48
"IRAG1 (inositol 1,4,5-triphosphate receptor associated 1)",8.87 (active)
"IRAG1 (inositol 1,4,5-triphosphate receptor associated 1)",0.42
DHX30 (DExH-box helicase 30),0.48
DHX30 (DExH-box helicase 30),0.43
DHX30 (DExH-box helicase 30),0.93
DHX30 (DExH-box helicase 30),0.74
SULF1 (sulfatase 1),0.47
SULF1 (sulfatase 1),0.16
SULF1 (sulfatase 1),0.18
SULF1 (sulfatase 1),2.72
FIGNL2 (fidgetin like 2),-0.42
FIGNL2 (fidgetin like 2),0.16
FIGNL2 (fidgetin like 2),-0.66
FIGNL2 (fidgetin like 2),0.01
SMPD4 (sphingomyelin phosphodiesterase 4),-0.44
SMPD4 (sphingomyelin phosphodiesterase 4),-0.6
SMPD4 (sphingomyelin phosphodiesterase 4),-0.01
SMPD4 (sphingomyelin phosphodiesterase 4),0.37
SOWAHB (sosondowah ankyrin repeat domain family member B),-1.84 (active)
SOWAHB (sosondowah ankyrin repeat domain family member B),-2.08 (active)
SOWAHB (sosondowah ankyrin repeat domain family member B),-1.89 (active)
SOWAHB (sosondowah ankyrin repeat domain family member B),-1.82 (active)
LSM3,-0.43
LSM3,0.52
LSM3,0.47
LSM3,-0.76
QRICH2 (glutamine rich 2),0.53
QRICH2 (glutamine rich 2),1.79
QRICH2 (glutamine rich 2),0.14
QRICH2 (glutamine rich 2),-0.44
IRX3 (iroquois homeobox 3),-0.58
IRX3 (iroquois homeobox 3),0.31
IRX3 (iroquois homeobox 3),0.16
IRX3 (iroquois homeobox 3),0.64
"GREM1 (gremlin 1, DAN family BMP antagonist)",1.05
"GREM1 (gremlin 1, DAN family BMP antagonist)",0.57
"GREM1 (gremlin 1, DAN family BMP antagonist)",0.13
"GREM1 (gremlin 1, DAN family BMP antagonist)",-0.32
MOK (MOK protein kinase),-2.01 (active)
MOK (MOK protein kinase),-1.83 (active)
MOK (MOK protein kinase),-1.98 (active)
MOK (MOK protein kinase),-1.73 (active)
NSUN4 (NOP2/Sun RNA methyltransferase 4),-0.18
NSUN4 (NOP2/Sun RNA methyltransferase 4),-0.02
NSUN4 (NOP2/Sun RNA methyltransferase 4),0.02
NSUN4 (NOP2/Sun RNA methyltransferase 4),-0.59
CXCL12 (C-X-C motif chemokine ligand 12),2.02
CXCL12 (C-X-C motif chemokine ligand 12),3.45 (active)
CXCL12 (C-X-C motif chemokine ligand 12),-0.27
CXCL12 (C-X-C motif chemokine ligand 12),0.31
PMM1 (phosphomannomutase 1),-0.13
PMM1 (phosphomannomutase 1),1.12
PMM1 (phosphomannomutase 1),-0.25
PMM1 (phosphomannomutase 1),1.44
ARHGAP1 (Rho GTPase activating protein 1),1.66
ARHGAP1 (Rho GTPase activating protein 1),0.58
ARHGAP1 (Rho GTPase activating protein 1),1.37
ARHGAP1 (Rho GTPase activating protein 1),-0.71
WDR17 (WD repeat domain 17),-1.07
WDR17 (WD repeat domain 17),-0.79
WDR17 (WD repeat domain 17),-1.15
WDR17 (WD repeat domain 17),-0.98
CD300C (CD300c molecule),-0.51
CD300C (CD300c molecule),-0.12
CD300C (CD300c molecule),-0.01
CD300C (CD300c molecule),-0.33
IGFALS,-0.13
IGFALS,0.4
IGFALS,0.35
IGFALS,0.85
EBPL (EBP like),-1.13
EBPL (EBP like),0.01
EBPL (EBP like),-0.15
EBPL (EBP like),0.07
SMNDC1 (survival motor neuron domain containing 1),-0.66
SMNDC1 (survival motor neuron domain containing 1),-0.81
SMNDC1 (survival motor neuron domain containing 1),-0.75
SMNDC1 (survival motor neuron domain containing 1),-0.55
OR11G2 (olfactory receptor family 11 subfamily G member 2),-0.32
OR11G2 (olfactory receptor family 11 subfamily G member 2),-0.26
OR11G2 (olfactory receptor family 11 subfamily G member 2),-0.36
OR11G2 (olfactory receptor family 11 subfamily G member 2),0.27

Called active, among the entries above:
Target gene,TNF reporter robust z-score
"ANKRD20A5P (ankyrin repeat domain 20 family member A5, pseudogene)",3.05 (active)
FAM209A (family with sequence similarity 209 member A),-1.66 (active)
"IRAG1 (inositol 1,4,5-triphosphate receptor associated 1)",8.87 (active)
SOWAHB (sosondowah ankyrin repeat domain family member B),-1.84 (active)
SOWAHB (sosondowah ankyrin repeat domain family member B),-2.08 (active)
SOWAHB (sosondowah ankyrin repeat domain family member B),-1.89 (active)
SOWAHB (sosondowah ankyrin repeat domain family member B),-1.82 (active)
MOK (MOK protein kinase),-2.01 (active)
MOK (MOK protein kinase),-1.83 (active)
MOK (MOK protein kinase),-1.98 (active)
MOK (MOK protein kinase),-1.73 (active)
CXCL12 (C-X-C motif chemokine ligand 12),3.45 (active)
